The amount applied is not stated for every result.
Test: Modified fish diet study: fold differences of serum metabolites
Format: in vivo, Bottlenose dolphins (Tursiops truncatus)
Settings: for Significant fold differences in serum between Month 0 and Month 1 in Modified Diet group: Month 1 vs Month 0

Compound | Significant fold differences in serum between Baseline and Modified Diet groups at Month 1 | Significant fold differences in serum between Month 0 and Month 1 in Modified Diet group
sphingomyelin (d18:1/19:0, d19:1/18:0) | 1.95 | 1.83
stearoyl-arachidonoyl-glycerol (18:0/20:4) [2] | 1.79 | 1.7
CCCCC/C=C\C/C=C\C/C=C\C/C=C\CCCC(=O)O[C@H](COC(=O)CCCCCCCCCCCCCCC)COP(=O)([O-])OCC[N+](C)(C)C [1-palmitoyl-2-arachidonoyl-GPC (16:0/20:4n6)] | 1.83 | 1.94
CCCCC/C=C\C/C=C\C/C=C\C/C=C\CCCC(=O)O[C@H](COC(=O)CCCCCCCCCCCCCCCCC)COP(=O)([O-])OCC[N+](C)(C)C [1-stearoyl-2-arachidonoyl-GPC (18:0/20:4)] | 1.71 | 1.92
1-heptadecenoylglycerol (17:1) | 2.34 | 2.27
sphingomyelin (d18:2/23:1) | 1.32 | 1.16
CCCCC/C=C\C/C=C\C/C=C\C/C=C\CCCC(=O)OC[C@@H](O)COP(=O)([O-])OCC[N+](C)(C)C [1-arachidonoyl-GPC (20:4n6)] | 2.22 | 2.33
CCCCCCCCCCCCCCCCCCCCCCCC(=O)OC[C@@H](O)COP(=O)([O-])OCC[N+](C)(C)C [1-lignoceroyl-GPC (24:0)] | 2.96 | 2.86
NC(N)=N[C@@H](CC(=O)O)C(=O)O [Guanidinosuccinate] | 1.84 | 1.53
CCCCC/C=C\C/C=C\C/C=C\C/C=C\CCCC(=O)O[C@H](COC(=O)CCCCCCCCCCCCCCCCC)COP(=O)(O)OCCN [1-stearoyl-2-arachidonoyl-GPE (18:0/20:4)] | 1.92 | 2.08
CCCCCCC(O)C(=O)O (stereo not drawn) [2-hydroxyoctanoate] | 1.29 | 1.29
sphingomyelin (d18:2/21:0, d16:2/23:0) | 1.22 | 1.08
CCCCC/C=C\C/C=C\C/C=C\C/C=C\CCCC(=O)OCC[N+](C)(C)C [Arachidonoylcholine] | 2.54 | 2.57
CCCCCCCCC(=O)O [Pelargonate (C9:0), pelargonate] | – | 1.17
oleoyl-arachidonoyl-glycerol (18:1/20:4) [1] | 1.68 | 1.65
CCCCC/C=C\C/C=C\C/C=C\C/C=C\CCCC(=O)OC[C@@H](O)COP(=O)(O)OCCN [1-arachidonoyl-GPE (20:4n6)] | 2.06 | 2.2
CCCCCCCCC=CCCCCCCCCC(=O)O [10-nonadecanoate (19:1n9), 10-nonadecanoate] | 1.34 | 1.37
O=C1CCCN1 [2-pyrrolidinone] | 1.16 | 1.12
CCCCCCCCCCCCCCC=COCC(O)COP(=O)([O-])OCC[N+](C)(C)C (stereo not drawn) [1-(1-enyl-palmitoyl)-GPC (P-16:0)] | 1.42 | 1.27
CCCCC/C=C\C/C=C\C/C=C\C/C=C\CCCC(=O)OCC(O)CO (stereo not drawn) [1-arachidonylglycerol (20:4)] | 2.43 | 2.25
CCCCCCCCCCCCC/C=C/[C@@H](O)[C@H](COP(=O)([O-])OCC[N+](C)(C)C)NC(=O)CCCCCCCCCCCCCCCCCCCCCC [Tricosanoyl sphingomyelin (d18:1/23:0), tricosanoyl sphingomyelin (d18:1/23:0)] | 3.02 | 2.82

Compound | Significant fold differences in serum between Baseline and Modified Diet groups at Month 1 | Significant fold differences in serum between Month 0 and Month 1 in Modified Diet group
O=C(O)Cc1cn(C2OC(CO)C(O)C2O)cn1 (stereo not drawn) [1-ribosyl-imidazoleacetate] | 2.47 | 3.29
sphingomyelin (d18:2/24:2) | 1.51 | 1.31
C=CCCCCCCCCC(=O)O [10-undecanoate (C11:1n1), 10-undecanoate] | 1.98 | 1.92
CCCCCCCCCCCCCCC(=O)O[C@H](CC(=O)[O-])C[N+](C)(C)C [Pentadecanoylcarnitine (C15), pentadecanoylcarnitine] | 2.63 | 2.92
CCCCCCCCCCCCC/C=C/[C@@H](O)[C@H](COP(=O)([O-])OCC[N+](C)(C)C)NC(=O)CCCCCCCCCCCCCCCCCCCCC [Behenoyl sphingomyelin (d18:1/22:0), behenoyl sphingomyelin (d18:1/22:0)] | 1.63 | 1.46
sphingomyelin (d17:1/16:0, d18:1/15:0, d16:1/17:0) | 2.88 | 2.56
dodecadienoate [Dodecadienoate (C12:2)] | 2.91 | 1.82
CCCCCCCCCCCCC/C=C/[C@@H](O)[C@H](COP(=O)([O-])OCC[N+](C)(C)C)NC(=O)CCCCCCCCCCCCCCCCCCCCCCC [Lignoceroyl sphingomyelin (d18:1/24:0), lignoceroyl sphingomyelin (d18:1/24:0)] | 2.73 | 2.3
CC(C)CCCCCCCCCCCCCC(=O)O [15-methylpalmitate (i17:0), 15-methylpalmitate] | 1.23 | 1.18
CC(C)CCCCCCCCCCCCCCCC(=O)O [17-methylstearate (i19:0), 17-methylstearate] | 1.37 | 1.36
sphingomyelin (d18:1/17:0, d17:1/18:0, d19:1/16:0) | 1.99 | 1.82
oleoyl-arachidonoyl-glycerol (18:1/20:4) [2] | 3.37 | 2.93
CCCCCCCCCCCCCCCC(=O)NCC(=O)O [N-palmitoylglycine] | – | 1.15
CCCCCCC=CCCCCCCCCC(=O)O [10-heptadecanoate (C17:1n7), 10-heptadecanoate] | 2.31 | 2.2
CCCCCCCC/C=C\CCCCCCCC(=O)O[C@H](COC(=O)CCCCCCCCCCCCCCCCC)COP(=O)(O)OC[C@H](N)C(=O)O [1-stearoyl-2-oleoyl-GPS (18:0/18:1)] | 1.92 | –
sphingomyelin (d18:1/21:0, d17:1/22:0, d16:1/23:0) | 2.05 | 1.93
CCCCC/C=C\C/C=C\C/C=C\C/C=C\CCCC(=O)O[C@H](CO/C=C\CCCCCCCCCCCCCCCC)COP(=O)(O)OCCN [1-(1-enyl-stearoyl)-2-arachidonoyl-GPE (P-18:0/20:4)] | 2.26 | 2.29
CCCCCCCCCCCCC/C=C/[C@@H](O)[C@H](COP(=O)([O-])OCC[N+](C)(C)C)NC(=O)CCCCCCCCCCCCCCCCC [Stearoyl sphingomyelin (d18:1/18:0), stearoyl sphingomyelin (d18:1/18:0)] | 1.24 | 1.21
cis-4-decenoylcarnitine [Cis-4-decenoylcarnitine (C10:1)] | 2.13 | 2.7
sphingomyelin (d17:1/14:0, d16:1/15:0) | 2.88 | 2.9
CCCCC/C=C\C/C=C\C/C=C\C/C=C\CCCC(=O)O[C@H](COC(=O)CCCCCCCCCCCCCCC)COP(=O)(O)OCCN [1-palmitoyl-2-arachidonoyl-GPE (16:0/20:4)] | 2.22 | 2.48

— patent US11992473B2, “Compositions and methods for diagnosis and treatment of conditions related to the quality of aging and longevity” (Epitracker, Inc., priority 2018, dated 2024)
